These are yes or no findings as the source states them, for the method shown. Binding seen in cells or lysates may run through a third protein. Some entries that bind do so weakly or less than the wild type.
Biological target: FLAG-tagged hGPR35 enhanced yellow fluorescent protein (FLAG-hGPR35-eYFP) (human) (UniProt Q9HC97)
Assay: FRET or BRET; HEK293T cells cotransfected with FLAG-hGPR35-eYFP and β-arrestin-2-Renilla luciferase 6 (ratio 4:1); Hanks' balanced salt solution pH 7.4, 5 μM coelentrazine-h, 37°C; 5 min with the agonists pamoic acid or zaprinast; BRET ratio 530/485 nm as percentage of maximal signal

Chains of the proteins cited; added tags and fusions are not shown.
UniProt Q9HC97: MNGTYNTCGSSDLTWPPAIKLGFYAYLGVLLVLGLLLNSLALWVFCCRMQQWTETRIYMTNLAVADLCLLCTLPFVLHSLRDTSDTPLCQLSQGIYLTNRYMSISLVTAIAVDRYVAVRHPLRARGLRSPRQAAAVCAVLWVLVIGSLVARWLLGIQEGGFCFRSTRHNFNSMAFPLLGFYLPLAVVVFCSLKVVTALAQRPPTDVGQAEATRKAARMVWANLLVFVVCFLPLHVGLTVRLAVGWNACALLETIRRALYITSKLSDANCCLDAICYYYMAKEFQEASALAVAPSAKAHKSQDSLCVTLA
UniProt P32121: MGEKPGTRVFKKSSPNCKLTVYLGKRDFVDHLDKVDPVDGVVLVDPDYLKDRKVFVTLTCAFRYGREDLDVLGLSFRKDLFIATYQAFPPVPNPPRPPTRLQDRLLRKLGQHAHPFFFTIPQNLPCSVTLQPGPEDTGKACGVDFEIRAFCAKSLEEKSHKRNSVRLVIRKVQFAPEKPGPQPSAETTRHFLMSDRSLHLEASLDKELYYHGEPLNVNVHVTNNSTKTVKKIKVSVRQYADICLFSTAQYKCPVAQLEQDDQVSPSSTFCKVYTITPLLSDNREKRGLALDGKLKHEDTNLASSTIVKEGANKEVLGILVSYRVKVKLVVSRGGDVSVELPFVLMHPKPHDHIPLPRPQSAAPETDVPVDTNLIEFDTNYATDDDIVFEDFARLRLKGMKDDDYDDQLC

binding: binds
Substance: β-arrestin-2-Renilla luciferase 6 (from UniProt P32121 1-409)

Source: publication PMC4959467
